By UniProt entry, the sequences of proteins in these tests, tags left out. Where a name states a change or a piece, a line headed by the entry shows the natural chain unless it says otherwise.
UniProt Q9SGW5: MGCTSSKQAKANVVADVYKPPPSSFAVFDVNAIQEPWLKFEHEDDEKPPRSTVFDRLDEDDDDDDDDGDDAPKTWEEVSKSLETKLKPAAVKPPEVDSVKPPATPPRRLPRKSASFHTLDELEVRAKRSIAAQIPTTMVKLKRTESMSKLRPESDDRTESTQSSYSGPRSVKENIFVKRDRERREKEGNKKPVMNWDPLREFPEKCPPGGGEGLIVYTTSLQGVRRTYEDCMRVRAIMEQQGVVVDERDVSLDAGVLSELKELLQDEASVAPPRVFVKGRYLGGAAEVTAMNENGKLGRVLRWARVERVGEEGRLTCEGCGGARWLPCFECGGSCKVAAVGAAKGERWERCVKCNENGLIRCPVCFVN

According to publication doi:10.1101/2021.07.09.451853:

Target: THRUMIN1:YFP in transgenic A. thaliana (A. thaliana) (UniProt Q9SGW5)
Assay: affinity purification with mass spectrometry

binding: binds
B1: 14-3-3 OMEGA, endogenous in A. thaliana (protein, UniProt Q01525 1-259)
chain: MASGREEFVYMAKLAEQAERYEEMVEFMEKVSAAVDGDELTVEERNLLSVAYKNVIGARRASWRIISSIEQKEESRGNDDHVTAIREYRSKIETELSGICDGILKLLDSRLIPAAASGDSKVFYLKMKGDYHRYLAEFKTGQERKDAAEHTLAAYKSAQDIANAELAPTHPIRLGLALNFSVFYYEILNSPDRACNLAKQAFDEAIAELDTLGEESYKDSTLIMQLLRDNLTLWTSDMQDDAADEIKEAAAPKPTEEQQ

binding: binds
B2: 14-3-3 KAPPA, endogenous in A. thaliana (protein, UniProt P48348 1-248)
chain: MATTLSRDQYVYMAKLAEQAERYEEMVQFMEQLVSGATPAGELTVEERNLLSVAYKNVIGSLRAAWRIVSSIEQKEESRKNEEHVSLVKDYRSKVETELSSICSGILRLLDSHLIPSATASESKVFYLKMKGDYHRYLAEFKSGDERKTAAEDTMIAYKAAQDVAVADLAPTHPIRLGLALNFSVFYYEILNSSEKACSMAKQAFEEAIAELDTLGEESYKDSTLIMQLLRDNLTLWTSDMQEQMDEA

Results are given in words; binding and its absence hold for the method and conditions named. In cells and extracts the contact can be indirect. A yes stands for co-enrichment or nearness to the bait. Other partners may have been found. Each block holds one binder with its values, some of them ahead of it.
